Source: patent US9133257B2, “Antimicrobial peptides and derived metapeptides” (priority 1998, dated 2015)
Some results were stated once for a whole list of compounds, not compound by compound. Ends that are not written are not given here.

System: a spectrum of pathogens
Experiment: antimicrobial spectra in vitro (radial diffusion assay)

Sequence: ALYKKFKKKLLKSLKRLG [RP-1]
- time to microbicidal activity: less than 2 hours
